According to PMC11015022:
Results are given in words; binding and its absence hold for the method and conditions named. In cells and extracts the contact can be indirect. A yes stands for co-enrichment or nearness to the bait. Other partners may have been found.

By UniProt entry, the sequences of proteins in these tests, tags left out.
UniProt P63017: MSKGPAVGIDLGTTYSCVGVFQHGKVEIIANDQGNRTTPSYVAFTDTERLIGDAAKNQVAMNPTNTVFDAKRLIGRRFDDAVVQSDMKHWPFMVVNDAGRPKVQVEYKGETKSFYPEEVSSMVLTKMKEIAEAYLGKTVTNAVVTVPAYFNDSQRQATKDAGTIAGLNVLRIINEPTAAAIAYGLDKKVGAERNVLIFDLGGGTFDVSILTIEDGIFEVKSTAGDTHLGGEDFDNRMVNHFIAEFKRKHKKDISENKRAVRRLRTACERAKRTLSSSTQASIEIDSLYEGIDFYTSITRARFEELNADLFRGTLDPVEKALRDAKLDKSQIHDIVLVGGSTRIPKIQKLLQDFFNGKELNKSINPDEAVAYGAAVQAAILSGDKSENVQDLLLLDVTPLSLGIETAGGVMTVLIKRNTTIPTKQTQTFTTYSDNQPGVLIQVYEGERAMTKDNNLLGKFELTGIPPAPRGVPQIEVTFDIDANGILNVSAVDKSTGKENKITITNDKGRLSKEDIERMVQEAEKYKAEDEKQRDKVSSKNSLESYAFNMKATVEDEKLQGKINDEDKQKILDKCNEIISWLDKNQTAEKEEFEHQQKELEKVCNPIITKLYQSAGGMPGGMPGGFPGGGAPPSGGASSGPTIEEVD

Biological target: HSPA8 (heat shock cognate 70 kDa protein) (mouse (endogenous in mouse testis)) (UniProt P63017)
Test: affinity purification with mass spectrometry; IP with HSPA8 antibody from mouse testis lysate, LC-MS

B1: Spermatogenesis Associated 6 (SPATA6) (protein, UniProt Q3U6K5 18-488)
chain: VTCPGVVLKDKEDIYLSICVFGQYKKTQCVPATFPLVFNARMVFEKVFPEAVDPGDVVAQLEYDTAVFELIQLVPPVGETLSTYDENTRDFMFPGPNQMSGHHDSNRQVTMRRISGLRGIAPKLEFSTTSVITECLISSRKCRTQDKFTYHSAPVEKSHGRLQCRTSRSQKKKSKSPERSKYCINTKNYEQPTISSKSHSPSPYTKRRMCELSEDTRRRLAHLNLGPYEFKKETDKPPFVIRHVDPPSPRTDNFFGSPGRDCERDGWVRMHSDHPHIGCCRSKDYKVIRSPHGRDFEDPFERCEEYLSPRTCSKPQHSARTLLVHSAPSTTPKHCASPVLNRASLRERFHSDWCSPPNCDEIHDRVKDVLKSHQAHARHLCDERDPEREDELELKRSLLYRDSAYDSDPEYSSFQRPRGSFHLDDGECWSNRAASCKGKSHRPVFENSMDKMYRNLYKKACSSVSHTQESF
binding: binds
